The match of structure and compound is tentative.
Legend:
SRC-1 [1] = target: T1, SRC-1 (Homo sapiens, UniProt Q15788); assay: SRC-1 expression level in MDA-MB-231 cells by Western blot
SRC-1 [2] = target: T1, SRC-1; assay: SRC-1 expression level in A549 cells by Western blot; settings: various concentrations
SRC-1 [3] = target: T1, SRC-1; assay: SRC-1 expression level in Colo205 cells by Western blot; settings: Colo205 cells expressing very low levels of CRBN, various concentrations

The chains behind the UniProt entries cited, without tags or fusion partners.
UniProt Q15788, whole entry: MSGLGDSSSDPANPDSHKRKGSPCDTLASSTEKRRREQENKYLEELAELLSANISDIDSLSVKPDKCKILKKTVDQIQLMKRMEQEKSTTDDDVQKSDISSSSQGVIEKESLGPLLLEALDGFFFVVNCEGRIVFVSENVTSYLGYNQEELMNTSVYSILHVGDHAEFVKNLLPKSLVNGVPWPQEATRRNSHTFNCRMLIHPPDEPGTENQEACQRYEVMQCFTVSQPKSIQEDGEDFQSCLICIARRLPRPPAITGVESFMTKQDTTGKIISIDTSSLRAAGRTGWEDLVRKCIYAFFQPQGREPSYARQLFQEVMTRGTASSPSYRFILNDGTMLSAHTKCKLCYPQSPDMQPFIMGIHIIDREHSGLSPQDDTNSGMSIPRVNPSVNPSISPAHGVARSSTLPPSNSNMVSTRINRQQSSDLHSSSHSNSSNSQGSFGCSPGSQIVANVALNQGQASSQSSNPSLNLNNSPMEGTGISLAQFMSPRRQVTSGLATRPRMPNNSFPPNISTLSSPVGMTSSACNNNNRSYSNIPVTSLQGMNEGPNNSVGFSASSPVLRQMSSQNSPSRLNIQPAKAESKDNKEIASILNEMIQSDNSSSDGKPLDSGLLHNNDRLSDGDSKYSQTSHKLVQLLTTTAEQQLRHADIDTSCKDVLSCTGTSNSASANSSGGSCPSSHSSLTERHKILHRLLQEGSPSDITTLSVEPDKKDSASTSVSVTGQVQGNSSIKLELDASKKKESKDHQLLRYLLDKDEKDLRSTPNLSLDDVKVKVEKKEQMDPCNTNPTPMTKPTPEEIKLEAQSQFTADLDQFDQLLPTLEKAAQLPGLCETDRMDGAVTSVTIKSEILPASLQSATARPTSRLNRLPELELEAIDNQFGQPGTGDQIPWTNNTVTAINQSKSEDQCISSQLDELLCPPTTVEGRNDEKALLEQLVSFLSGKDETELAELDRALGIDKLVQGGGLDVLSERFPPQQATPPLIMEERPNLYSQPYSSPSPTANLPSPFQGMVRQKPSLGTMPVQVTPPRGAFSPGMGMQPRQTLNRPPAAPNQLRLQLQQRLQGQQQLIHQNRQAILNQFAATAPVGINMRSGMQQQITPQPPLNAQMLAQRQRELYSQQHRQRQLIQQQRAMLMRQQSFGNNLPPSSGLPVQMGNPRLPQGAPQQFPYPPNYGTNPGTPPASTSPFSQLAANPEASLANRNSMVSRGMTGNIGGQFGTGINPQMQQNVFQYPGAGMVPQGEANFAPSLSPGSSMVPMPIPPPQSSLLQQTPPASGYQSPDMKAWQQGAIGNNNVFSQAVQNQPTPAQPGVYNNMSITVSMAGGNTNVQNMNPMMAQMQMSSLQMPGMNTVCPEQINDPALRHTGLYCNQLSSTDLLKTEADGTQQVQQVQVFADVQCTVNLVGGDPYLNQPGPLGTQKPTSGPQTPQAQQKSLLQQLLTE

## CC(C)C[C@H](NC(=O)CCOCCOCCNc1cccc2c1C(=O)N(C1CCC(=O)NC1=O)C2=O)C(=O)N[C@@H](CC(C)C)C(=O)N1CCC[C@H]1C(=O)N1CCC[C@H]1C(=O)N[C@H](C(=O)N[C@@H](CCC(=O)O)C(=O)N[C@@H](CCC(N)=O)C(=O)N[C@@H](CC(=O)O)C(=O)N[C@@H](CC(C)C)C(=O)N[C@@]1(C)CCCC=CCCC[C@@](C)(C(=O)N[C@@H](Cc2ccc(O)cc2)C(N)=O)NC(=O)[C@H](CC2CCCCC2)NC(=O)[C@H](CC(C)C)NC(=O)[C@H](CCCCN)NC1=O)[C@@H](C)O (stereo partly shown)
SRC-1 [1]; read-out: DC50 for reduction of SRC-1 expression level, various concentrations
  DC50: 10 µM
SRC-1 [1]; various concentrations
  SRC-1 degradation: strongest activity among the synthesized and treated compounds
SRC-1 [2]
  Activity in inducing SRC-1 degradation: activity similar to that of ND1-YL2
SRC-1 [3]
  Effect on SRC-1 expression level: no effect
